In PubChem BioAssay AID504847 (National Center for Advancing Translational Sciences (NCATS), 2011):
Hit rate of the full screen: of about 400,000 compounds, about 3,700 (0.93%) were called active. Inconclusive results, whose numbers are uncertain, are shown with a selection of clear calls. The call rests on the fitted dose curve; in most records, active means well fitted inhibition curve with a large enough effect; inconclusive means small, poorly fitted or top-dose-only effect, or another doubt; inactive means no such curve, though single readings can be large or run the other way. Potencies of inconclusive entries are doubtful fits and often do not repeat. Where a SMILES comes first, the peptide text is derived from it. Bridges are numbered along the chain shown (N, C = ends). [ ]: non-standard residue; d: D form. The star is where a group is joined. X1 = CCC(C)C(N)C1=NC(C(=O)*)CS1; dOrn = NCCC[C@@H](N)C(=O)O

Protein sequences, listed by entry. Tags and fused reporters are not part of them. Lines headed by an entry give the natural chain unless they say otherwise; changes in a name come on top.
UniProt P11473: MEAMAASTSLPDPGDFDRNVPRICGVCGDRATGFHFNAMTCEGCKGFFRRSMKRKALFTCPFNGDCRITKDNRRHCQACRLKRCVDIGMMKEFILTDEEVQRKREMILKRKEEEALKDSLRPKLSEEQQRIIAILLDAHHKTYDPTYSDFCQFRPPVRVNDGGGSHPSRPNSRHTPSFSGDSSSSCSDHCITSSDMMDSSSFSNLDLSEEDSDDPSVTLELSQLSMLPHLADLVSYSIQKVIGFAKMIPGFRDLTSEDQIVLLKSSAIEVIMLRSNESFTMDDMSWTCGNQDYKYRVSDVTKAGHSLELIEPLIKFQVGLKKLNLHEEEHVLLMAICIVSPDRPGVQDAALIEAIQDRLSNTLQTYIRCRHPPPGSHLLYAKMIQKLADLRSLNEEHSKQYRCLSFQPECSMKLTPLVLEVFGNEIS

These compounds were tested against Vitamin D3 receptor (Homo sapiens) (UniProt P11473) (assay: Inhibitors of the vitamin D receptor (VDR): qHTS). Conditions: VDR-SRC2-3 peptide fluorescence polarization, 2 h; max response, negative = inhibition: stronger effect = lower value.
Summary of the method: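 Two reagent solutions held at 4 deg C in the dark were dispensed, compounds pinned at 23 nl, and the mixture incubated 2 h at room temperature. Read-out: fluorescence polarization of VDR–SRC2-3 peptide binding.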
On the % scale 0 is the no-effect control and ±100 the full control effect; potency means the concentration at half of the fitted maximal effect.

Potency, active:
CC1=C(CCC(=O)O)c2cc3nc(cc4[nH]c(cc5[nH]c(cc1n2)c(C)c5C(C)O)c(C)c4C(C)O)C(C)=C3CCC(=O)O (configuration not stated) 17.8 µM
O=c1cc(-c2ccccc2)oc2c(O)c(O)ccc12 12.6 µM
Cn1c(=O)c2[nH]c(SCCN3CCOCC3)nc2n(C)c1=S 28.2 µM
CC1=C/C(=N\OS(=O)(=O)c2ccccc2)C=CC1=O 31.6 µM
COc1ccc(CN2[C@@H](CC(C)=O)c3ccc(/C=C/C(C)=O)cc3S2(=O)=O)cc1 79.4 µM
c1ncc(-c2ccoc2)c(NC2CC2)n1 50.1 µM

Reprinted at random: two entries already listed
Potency, active:
CC1=C/C(=N\OS(=O)(=O)c2ccccc2)C=CC1=O 31.6 µM
COc1ccc(CN2[C@@H](CC(C)=O)c3ccc(/C=C/C(C)=O)cc3S2(=O)=O)cc1 79.4 µM

Next part:

Potency, inconclusive:
Cc1cc(C(=O)Nc2c(F)cc(F)cc2Br)c(C)o1 56.2 µM [inhibitor, partial curve, poor fit]
O=C1CCN(Cc2ccccc2)S(=O)(=O)c2ccccc21 100 µM [inhibitor, single point]
Cc1ccc(C(C)NC(=O)/C(C#N)=C\c2c(C)[nH]c3ccccc23)cc1 (configuration not stated) 39.8 µM [inhibitor, single point]
CC(C)OC(=O)Nc1ccc(-c2ccc(NC(=O)OC(C)C)cc2Cl)c(Cl)c1 89.1 µM [inhibitor, single point]
O=C(N/N=C1/CC2C=CCC12)c1ccco1 (configuration not stated) 79.4 µM [inhibitor, partial curve]
CCC(C(=O)Nc1nc(C)cs1)c1ccccc1 (configuration not stated) 50.1 µM [inhibitor, partial curve, poor fit]
O=C(NC1CCCCC1)NC1CC2CCCC(C1)N2C1CCCC1 (configuration not stated) 7.08 µM [inhibitor, full curve, poor fit]
CC(=O)Nc1ccc(NC(=O)COC(=O)/C(=C/c2ccccc2)n2nnnc2C)cc1 79.4 µM [inhibitor, single point]
Cc1cccc(NC(=O)CCC(=O)OCC(=O)c2ccc(Oc3ccc([N+](=O)[O-])cc3)cc2)c1 50.1 µM [inhibitor, partial curve, poor fit]
O=C(COC(=O)CC1CC2CCC1C2)Nc1cccc(S(=O)(=O)NC2=NCCCCC2)c1 (configuration not stated) 70.8 µM [inhibitor, partial curve, poor fit]
Cc1ccc(S(=O)(=O)N(C(=O)c2ccncc2)c2ccc(OC(=O)c3ccncc3)cc2)cc1 56.2 µM [inhibitor, partial curve, poor fit]
COc1ccc(CN2CCNC(=O)C2CC(=O)NCCCC2CCCC2)c(C)c1C (configuration not stated) 70.8 µM [inhibitor, partial curve, poor fit]
Cc1ccc(-c2cc(C(=O)N/N=C/C=C/c3ccccc3)n[nH]2)s1 20 µM [inhibitor, single point]
O=S(=O)(NN1CCOCC1)c1ccc(Br)cc1 25.1 µM [inhibitor, single point]
O=C(CSCc1ccco1)Nc1cc(C(F)(F)F)ccc1N1CCOCC1 56.2 µM [inhibitor, partial curve, poor fit]
C=C(C)COc1ccc2c(CC)cc(=O)oc2c1 20 µM [inhibitor, partial curve]
Cc1ccccc1OCC(O)Cn1c(SC(C)C)nc2c1c(=O)[nH]c(=O)n2C (configuration not stated) 89.1 µM [inhibitor, single point]
COc1ccc(Cc2nnc(NC(=O)Nc3ccc(F)cc3)s2)cc1OC 56.2 µM [inhibitor, partial curve, poor fit]
O=C(Cc1ccc(Cl)c(Cl)c1)Nc1ccc(S(=O)(=O)Nc2ncccn2)cc1 70.8 µM [inhibitor, partial curve]
Cc1cc2c(cc1C)C(c1ccsc1)CC(=O)N2 (configuration not stated) 89.1 µM [inhibitor, single point]
COc1cccc(/C=C/C(=O)c2ccc(NS(=O)(=O)c3ccc(C)cc3)cc2)c1 35.5 µM [inhibitor, partial curve, poor fit]
Cc1nc2c(C(=O)NCCc3ccccc3)c[nH]n2c(=O)c1Cc1ccccc1F 89.1 µM [inhibitor, single point]
CCNC(=O)c1c(O)c2c([nH]c1=O)CCCC2 2.51 µM [inhibitor, full curve, poor fit]
CC1CCN(CC(CS(=O)(=O)c2ccc([N+](=O)[O-])cc2)N2CCC(C)CC2)CC1 (configuration not stated) 14.1 µM [inhibitor, single point]
CCn1nc(C)c(Br)c1C(=O)Sc1ccccc1Cl 89.1 µM [inhibitor, single point]
CSC(C1CCCC1)n1nnc2ccccc21 (configuration not stated) 79.4 µM [inhibitor, partial curve, poor fit]
CCc1ccc(C(=O)c2cn(CC(=O)Nc3ccc(OC)cc3)c3cc4c(cc3c2=O)OCCO4)cc1 79.4 µM [inhibitor, partial curve, poor fit]
O=c1[nH]c2ccc(Cl)cc2c(-c2ccccc2)c1SC(=S)N1CCCCC1 89.1 µM [inhibitor, single point]
Cc1cccc(C)c1OCC(=O)Nc1c(C(=O)c2ccccc2)oc2ccccc12 10 µM [inhibitor, full curve, poor fit]
CCC(C)C(N)C1=NC(C(=O)N[C@@H](CC(C)C)C(=O)N[C@H](CCC(=O)[O-])C(=O)N[C@H](C(=O)N[C@H]2CCCCNC(=O)[C@H](CC(N)=O)NC(=O)[C@@H](CC(=O)[O-])NC(=O)[C@H](Cc3cnc[nH]3)NC(=O)[C@@H](Cc3ccccc3)NC(=O)[C@H]([C@@H](C)CC)NC(=O)[C@@H](CCCN)NC2=O)[C@@H](C)CC)CS1.[Zn+2] (some centres not stated) (X1-L[dE]IK[dOrn]I[dF]H[dD]N; lactam 4-C) 89.1 µM [inhibitor, single point]
O=[N+]([O-])c1cc(C(F)(F)F)ccc1Sc1nccn1Cc1ccccc1 79.4 µM [inhibitor, single point]
Cc1ccccc1C(CC(=O)c1cccs1)C(C#N)C#N (configuration not stated) 50.1 µM [inhibitor, partial curve, poor fit]
CC(=O)c1ccc(N2CCN(c3ncnc4onc(-c5ccc(Cl)cc5)c34)CC2)cc1 70.8 µM [inhibitor, partial curve]
Cc1cc(C(=O)N2CCC(C(N)=O)CC2)c(C)o1 89.1 µM [inhibitor, single point]

Max response, negative = inhibition, inactive:
O=C1N/C(=N/N=C/c2ccco2)SC1Cc1ccccc1 (configuration not stated) -18.6%
O=C(Nc1ccc(Cl)cc1)c1ccc(-n2cncn2)c([N+](=O)[O-])c1 -22.3%
COCCNC(=O)CSc1cn(CC(=O)N2CCCCCC2)c2ccccc12 3.64%
COc1ccc2[nH]c(=O)c(CN(c3ccccc3OC)S(=O)(=O)c3ccccc3)cc2c1 2.35%
COc1ccc(/C=C(/NC(=O)c2ccccc2)C(=O)NCCCn2ccnc2)cc1OC 6.64%
O=C(COc1ccc(/C=N/NC(=O)c2ccncc2)cc1)Nc1ccccc1 -8.22%
COc1cc(NC(=O)CCNC(=O)Cn2cnc3sc4c(c3c2=O)CCCC4)cc(OC)c1OC -12.5%
N#Cc1c(N)nc2c(c1-c1ccc(Br)s1)CCCC2 -10.4%
Cc1ccc(NC(=S)Nc2cccc3ccccc23)cc1 22%
O=C1C(Nc2ccccc2)=C(NS(=O)(=O)c2ccccc2)C(=O)c2ccccc21 -22.9%
c1ccc(CN2CCN(CCOCCOc3ccc4c(c3)CCC4)CC2)cc1 -13.8%
CC/C(=N\Nc1ccccc1[N+](=O)[O-])c1ccc(O)cc1 1.02%
COc1ccc2c(=O)c3c(=O)n(Cc4ccco4)c(-c4ccc(C)cc4)nc3oc2c1 -23.3%
O=C1C(CCCNC(=S)NCc2ccccc2)NC(=S)N1Cc1ccccc1 (configuration not stated) -13.8%
O=C1/C(=C\c2ccco2)SC(=S)N1c1ccc(O)cc1 -4.16%
COc1ccc(-c2cc3nc(N)cc(=O)n3[nH]2)cc1 2.26%
COc1cccc(CNC(=O)CCl)c1 -5.56%
CC(=O)Nc1ccc(Nc2ncnc3c2cnn3-c2ccccc2)cc1 17.8%
O=C(O)c1ccc(Nc2nc3ccccc3c3nncn23)cc1 -6.57%
ClC1=C(Cl)C(Cl)=C(Cl)C1=C/C=C/c1ccccc1 -16%
CCN(c1ccccc1)S(=O)(=O)c1ccc(N2CCN(c3ccc(OC)cc3)CC2)nc1 -16.9%
O=[N+]([O-])c1ccc(S(=O)(=O)CC(CN2CCOCC2)N2CCOCC2)cc1 (configuration not stated) -1.8%
CCc1ccc(Cn2c(CNS(=O)(=O)c3ccc4c(c3)CCCC4)nc3cccnc32)cc1 4.74%
Cc1cc(Br)ccc1-n1[nH]c(C)c(C=Nc2cccc3nsnc23)c1=O -18.4%
O=C(NCC1CCCO1)C1CC(=O)N(c2ccccc2)C1 (configuration not stated) 3.01%
CN1C(=O)c2ccccc2Sc2ccc(NC(=O)N3CCCC3)cc21 -5.53%
CCN1C(=O)C2(C(C(=O)c3cc4ccccc4o3)=C(O)C(=O)N2CCCN(C)C)c2ccccc21 (configuration not stated) -11.2%

Taken from above for reference:
Max response, negative = inhibition, inactive:
COc1ccc2c(=O)c3c(=O)n(Cc4ccco4)c(-c4ccc(C)cc4)nc3oc2c1 -23.3%
O=C1C(CCCNC(=S)NCc2ccccc2)NC(=S)N1Cc1ccccc1 (configuration not stated) -13.8%
O=C1/C(=C\c2ccco2)SC(=S)N1c1ccc(O)cc1 -4.16%
COc1ccc(-c2cc3nc(N)cc(=O)n3[nH]2)cc1 2.26%
